Experimental data: PMC9648840
No constants are given. Whether binding was seen depends on the method and setting. In cells and extracts the contact can be indirect. Some entries that bind do so weakly or less than the wild type. Sequences can lack the tags named with a protein.

Protein sequences, listed by entry. Tags and fused reporters are not part of them.
UniProt O02799: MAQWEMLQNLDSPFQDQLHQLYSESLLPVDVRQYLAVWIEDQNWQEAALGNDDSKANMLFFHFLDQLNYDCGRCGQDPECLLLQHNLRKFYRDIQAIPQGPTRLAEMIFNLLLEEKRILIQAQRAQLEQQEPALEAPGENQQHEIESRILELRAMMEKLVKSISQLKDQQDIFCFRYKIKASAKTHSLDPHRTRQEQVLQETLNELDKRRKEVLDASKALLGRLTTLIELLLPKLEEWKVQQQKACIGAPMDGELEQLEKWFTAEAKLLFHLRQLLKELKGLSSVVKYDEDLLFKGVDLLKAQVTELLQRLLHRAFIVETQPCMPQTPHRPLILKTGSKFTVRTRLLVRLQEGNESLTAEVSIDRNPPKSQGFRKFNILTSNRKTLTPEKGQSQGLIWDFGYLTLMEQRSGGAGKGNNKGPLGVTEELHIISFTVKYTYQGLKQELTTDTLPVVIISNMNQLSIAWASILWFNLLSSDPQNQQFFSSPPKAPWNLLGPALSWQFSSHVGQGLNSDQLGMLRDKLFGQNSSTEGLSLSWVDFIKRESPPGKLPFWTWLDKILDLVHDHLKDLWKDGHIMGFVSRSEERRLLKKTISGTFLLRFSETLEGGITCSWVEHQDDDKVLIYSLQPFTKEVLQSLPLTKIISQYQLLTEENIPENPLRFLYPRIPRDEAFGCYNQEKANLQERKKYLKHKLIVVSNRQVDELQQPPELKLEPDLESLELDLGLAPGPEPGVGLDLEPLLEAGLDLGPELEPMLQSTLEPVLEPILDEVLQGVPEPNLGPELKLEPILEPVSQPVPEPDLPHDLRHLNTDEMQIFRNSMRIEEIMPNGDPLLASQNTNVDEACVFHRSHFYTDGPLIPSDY

Target: T1, HA-STAT1 (UniProt Q764M5)
T1 sequence: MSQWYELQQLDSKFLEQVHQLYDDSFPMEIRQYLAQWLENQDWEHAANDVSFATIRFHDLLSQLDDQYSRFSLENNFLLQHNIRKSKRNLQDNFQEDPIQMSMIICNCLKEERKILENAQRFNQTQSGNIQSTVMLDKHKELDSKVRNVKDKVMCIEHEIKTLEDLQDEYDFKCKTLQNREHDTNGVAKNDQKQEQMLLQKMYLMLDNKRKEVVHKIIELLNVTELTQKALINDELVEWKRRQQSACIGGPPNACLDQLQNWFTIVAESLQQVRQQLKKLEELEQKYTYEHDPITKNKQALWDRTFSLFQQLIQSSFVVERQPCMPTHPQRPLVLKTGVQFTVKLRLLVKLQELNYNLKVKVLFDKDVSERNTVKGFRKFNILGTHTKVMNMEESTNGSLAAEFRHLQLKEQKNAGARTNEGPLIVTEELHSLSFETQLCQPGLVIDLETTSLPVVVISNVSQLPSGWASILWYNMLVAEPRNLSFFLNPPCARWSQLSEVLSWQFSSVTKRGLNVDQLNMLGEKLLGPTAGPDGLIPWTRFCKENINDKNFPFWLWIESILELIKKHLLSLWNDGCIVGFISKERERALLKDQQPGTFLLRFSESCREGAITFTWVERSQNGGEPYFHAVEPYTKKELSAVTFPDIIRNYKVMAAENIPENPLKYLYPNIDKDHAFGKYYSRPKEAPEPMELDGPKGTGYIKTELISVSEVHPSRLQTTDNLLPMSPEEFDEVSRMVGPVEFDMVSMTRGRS
Test: co-IP

binding: binds
Substance: Myc-STAT2 (from UniProt O02799 1-864)
